For two substances, binding results are on record in paper PMC12024529.

The chains behind the UniProt entries cited, without tags or fusion partners. Where a name states a change or a piece, a line headed by the entry shows the natural chain unless it says otherwise. Residues count along the entry.
UniProt P00451: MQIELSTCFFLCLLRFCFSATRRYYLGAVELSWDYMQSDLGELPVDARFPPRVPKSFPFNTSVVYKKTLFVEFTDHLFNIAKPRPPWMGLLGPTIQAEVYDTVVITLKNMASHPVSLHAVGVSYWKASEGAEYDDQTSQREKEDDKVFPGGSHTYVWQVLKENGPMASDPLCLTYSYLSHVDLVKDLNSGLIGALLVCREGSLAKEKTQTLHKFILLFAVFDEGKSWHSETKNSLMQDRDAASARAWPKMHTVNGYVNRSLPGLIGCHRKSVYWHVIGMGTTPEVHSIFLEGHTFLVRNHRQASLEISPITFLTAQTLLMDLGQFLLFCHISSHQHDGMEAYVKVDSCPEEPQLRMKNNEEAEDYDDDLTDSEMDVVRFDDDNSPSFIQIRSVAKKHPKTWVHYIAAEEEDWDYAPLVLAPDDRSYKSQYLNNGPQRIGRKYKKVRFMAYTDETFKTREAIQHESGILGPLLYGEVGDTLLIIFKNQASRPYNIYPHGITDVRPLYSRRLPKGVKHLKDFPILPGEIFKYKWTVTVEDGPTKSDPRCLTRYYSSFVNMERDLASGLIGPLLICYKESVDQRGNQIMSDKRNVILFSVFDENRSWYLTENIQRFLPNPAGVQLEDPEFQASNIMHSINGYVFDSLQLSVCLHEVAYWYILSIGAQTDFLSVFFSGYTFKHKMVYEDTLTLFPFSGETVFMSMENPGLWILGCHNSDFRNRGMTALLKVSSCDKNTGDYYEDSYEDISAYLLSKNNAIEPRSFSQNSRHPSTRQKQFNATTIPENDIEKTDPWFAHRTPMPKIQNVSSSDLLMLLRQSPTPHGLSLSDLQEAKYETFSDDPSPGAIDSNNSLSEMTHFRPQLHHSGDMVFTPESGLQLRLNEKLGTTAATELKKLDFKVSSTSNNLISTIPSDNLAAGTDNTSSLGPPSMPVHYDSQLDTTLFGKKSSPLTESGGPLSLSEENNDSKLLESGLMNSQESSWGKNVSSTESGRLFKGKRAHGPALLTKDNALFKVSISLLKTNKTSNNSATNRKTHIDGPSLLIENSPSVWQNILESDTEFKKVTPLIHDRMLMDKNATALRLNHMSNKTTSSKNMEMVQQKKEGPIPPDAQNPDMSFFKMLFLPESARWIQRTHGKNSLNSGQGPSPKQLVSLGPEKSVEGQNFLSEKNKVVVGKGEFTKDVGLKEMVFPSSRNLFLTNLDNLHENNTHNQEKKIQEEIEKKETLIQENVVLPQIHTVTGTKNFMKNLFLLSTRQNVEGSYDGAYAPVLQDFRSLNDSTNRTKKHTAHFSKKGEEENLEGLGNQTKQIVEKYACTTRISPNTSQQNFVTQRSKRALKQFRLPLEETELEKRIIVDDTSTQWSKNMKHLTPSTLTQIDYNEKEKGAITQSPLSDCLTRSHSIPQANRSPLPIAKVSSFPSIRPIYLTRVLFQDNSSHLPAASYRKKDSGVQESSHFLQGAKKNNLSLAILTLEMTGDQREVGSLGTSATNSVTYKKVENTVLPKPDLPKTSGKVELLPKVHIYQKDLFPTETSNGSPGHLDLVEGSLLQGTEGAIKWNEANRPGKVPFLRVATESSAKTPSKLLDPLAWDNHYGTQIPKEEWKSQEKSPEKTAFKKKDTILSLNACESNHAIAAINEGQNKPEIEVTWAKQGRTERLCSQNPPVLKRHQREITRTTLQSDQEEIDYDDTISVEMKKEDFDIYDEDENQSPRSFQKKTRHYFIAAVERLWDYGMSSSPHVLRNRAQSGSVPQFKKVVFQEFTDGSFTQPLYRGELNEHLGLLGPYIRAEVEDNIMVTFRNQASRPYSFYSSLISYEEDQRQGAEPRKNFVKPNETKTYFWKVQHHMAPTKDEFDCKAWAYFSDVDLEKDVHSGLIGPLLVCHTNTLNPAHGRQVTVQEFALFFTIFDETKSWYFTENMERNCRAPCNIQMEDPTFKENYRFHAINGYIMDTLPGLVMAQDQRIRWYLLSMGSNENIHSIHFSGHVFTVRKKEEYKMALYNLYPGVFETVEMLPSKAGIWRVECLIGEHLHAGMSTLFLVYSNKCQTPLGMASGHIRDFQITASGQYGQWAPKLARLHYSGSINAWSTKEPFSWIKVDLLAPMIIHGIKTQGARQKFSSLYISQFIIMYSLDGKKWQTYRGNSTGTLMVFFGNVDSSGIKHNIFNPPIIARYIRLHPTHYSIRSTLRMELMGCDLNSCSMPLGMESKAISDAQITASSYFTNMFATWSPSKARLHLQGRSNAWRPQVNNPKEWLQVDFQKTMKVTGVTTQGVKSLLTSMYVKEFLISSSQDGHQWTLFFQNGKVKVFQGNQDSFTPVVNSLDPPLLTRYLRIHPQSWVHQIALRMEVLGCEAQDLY
UniProt P11021, residues 19-654: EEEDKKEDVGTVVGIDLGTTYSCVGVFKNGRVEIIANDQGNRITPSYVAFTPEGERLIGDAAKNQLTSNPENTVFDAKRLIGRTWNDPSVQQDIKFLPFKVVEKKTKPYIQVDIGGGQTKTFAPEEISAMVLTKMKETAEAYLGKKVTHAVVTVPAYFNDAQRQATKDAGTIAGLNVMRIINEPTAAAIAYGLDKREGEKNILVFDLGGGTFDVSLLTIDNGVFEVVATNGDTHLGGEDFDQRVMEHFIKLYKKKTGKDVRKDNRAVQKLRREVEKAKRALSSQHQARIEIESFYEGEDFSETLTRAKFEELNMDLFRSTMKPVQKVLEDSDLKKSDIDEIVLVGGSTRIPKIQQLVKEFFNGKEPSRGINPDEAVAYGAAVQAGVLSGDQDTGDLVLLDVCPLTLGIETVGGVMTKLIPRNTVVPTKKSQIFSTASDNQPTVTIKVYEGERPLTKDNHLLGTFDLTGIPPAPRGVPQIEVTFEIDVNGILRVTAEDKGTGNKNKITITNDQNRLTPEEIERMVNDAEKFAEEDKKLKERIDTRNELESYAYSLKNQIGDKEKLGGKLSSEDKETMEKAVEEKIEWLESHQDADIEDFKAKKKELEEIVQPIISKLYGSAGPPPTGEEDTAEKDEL

These are yes or no findings as the source states them, for the method shown. Binding seen in cells or lysates may run through a third protein. Binding can be weak; no strength is given.

The assay addresses full-length factor VIII missense mutant p.A488T (human) (UniProt P00451). Description: co-IP; lysates of transfected HEK293T cells (NP-40 lysis buffer: 50 mM Tris-Cl pH 7.5, 150 mM NaCl, 1% NP-40, 0.05% SDS); FVIII precipitated with agarose-bead-conjugated monoclonal anti-human FVIII, blots for BiP and CALR; cells untreated or treated with 2.5 µM SAHA or BIX (20 µM, 5 µM) for 24 h.

Consider “calreticulin (from UniProt P27797 18-417)”, for which the binding entry was “binds”.
Next, “immunoglobulin binding protein (BiP/GRP78) (from UniProt P11021 19-654)”: “binds”.
